Measured values published in PubChem BioAssay AID2662 (National Center for Advancing Translational Sciences (NCATS), 2010).
Several values for one entry are separate records, joined by “and”; a condition that tells them apart may be missing. Equal entries are not always repeated. The campaign covered roughly 290,000 compounds. About 110 (0.038%) were called active. This list was built around the results that the source calls inconclusive (neither active nor inactive); the mix of calls is not that of the screen. The call rests on the fitted dose curve; in most records, active means well fitted inhibition curve with a large enough effect in the polarisation, with a control signal flat (not every such curve was filed as active); inconclusive means small, poorly fitted or top-dose-only effect, or effect the other way, or a change in a side signal; inactive means no such curve, though single readings can be large or run the other way; the % refers to the polarisation. Where the call is inconclusive, the potency comes from a doubtful curve fit. A note “side channel” means that the fit belongs to a control or component signal, not to the main read-out.
Potency means the concentration at half of the fitted maximal effect.

The chains behind the UniProt entries cited, without tags or fusion partners.
UniProt Q03164, whole entry, looked up: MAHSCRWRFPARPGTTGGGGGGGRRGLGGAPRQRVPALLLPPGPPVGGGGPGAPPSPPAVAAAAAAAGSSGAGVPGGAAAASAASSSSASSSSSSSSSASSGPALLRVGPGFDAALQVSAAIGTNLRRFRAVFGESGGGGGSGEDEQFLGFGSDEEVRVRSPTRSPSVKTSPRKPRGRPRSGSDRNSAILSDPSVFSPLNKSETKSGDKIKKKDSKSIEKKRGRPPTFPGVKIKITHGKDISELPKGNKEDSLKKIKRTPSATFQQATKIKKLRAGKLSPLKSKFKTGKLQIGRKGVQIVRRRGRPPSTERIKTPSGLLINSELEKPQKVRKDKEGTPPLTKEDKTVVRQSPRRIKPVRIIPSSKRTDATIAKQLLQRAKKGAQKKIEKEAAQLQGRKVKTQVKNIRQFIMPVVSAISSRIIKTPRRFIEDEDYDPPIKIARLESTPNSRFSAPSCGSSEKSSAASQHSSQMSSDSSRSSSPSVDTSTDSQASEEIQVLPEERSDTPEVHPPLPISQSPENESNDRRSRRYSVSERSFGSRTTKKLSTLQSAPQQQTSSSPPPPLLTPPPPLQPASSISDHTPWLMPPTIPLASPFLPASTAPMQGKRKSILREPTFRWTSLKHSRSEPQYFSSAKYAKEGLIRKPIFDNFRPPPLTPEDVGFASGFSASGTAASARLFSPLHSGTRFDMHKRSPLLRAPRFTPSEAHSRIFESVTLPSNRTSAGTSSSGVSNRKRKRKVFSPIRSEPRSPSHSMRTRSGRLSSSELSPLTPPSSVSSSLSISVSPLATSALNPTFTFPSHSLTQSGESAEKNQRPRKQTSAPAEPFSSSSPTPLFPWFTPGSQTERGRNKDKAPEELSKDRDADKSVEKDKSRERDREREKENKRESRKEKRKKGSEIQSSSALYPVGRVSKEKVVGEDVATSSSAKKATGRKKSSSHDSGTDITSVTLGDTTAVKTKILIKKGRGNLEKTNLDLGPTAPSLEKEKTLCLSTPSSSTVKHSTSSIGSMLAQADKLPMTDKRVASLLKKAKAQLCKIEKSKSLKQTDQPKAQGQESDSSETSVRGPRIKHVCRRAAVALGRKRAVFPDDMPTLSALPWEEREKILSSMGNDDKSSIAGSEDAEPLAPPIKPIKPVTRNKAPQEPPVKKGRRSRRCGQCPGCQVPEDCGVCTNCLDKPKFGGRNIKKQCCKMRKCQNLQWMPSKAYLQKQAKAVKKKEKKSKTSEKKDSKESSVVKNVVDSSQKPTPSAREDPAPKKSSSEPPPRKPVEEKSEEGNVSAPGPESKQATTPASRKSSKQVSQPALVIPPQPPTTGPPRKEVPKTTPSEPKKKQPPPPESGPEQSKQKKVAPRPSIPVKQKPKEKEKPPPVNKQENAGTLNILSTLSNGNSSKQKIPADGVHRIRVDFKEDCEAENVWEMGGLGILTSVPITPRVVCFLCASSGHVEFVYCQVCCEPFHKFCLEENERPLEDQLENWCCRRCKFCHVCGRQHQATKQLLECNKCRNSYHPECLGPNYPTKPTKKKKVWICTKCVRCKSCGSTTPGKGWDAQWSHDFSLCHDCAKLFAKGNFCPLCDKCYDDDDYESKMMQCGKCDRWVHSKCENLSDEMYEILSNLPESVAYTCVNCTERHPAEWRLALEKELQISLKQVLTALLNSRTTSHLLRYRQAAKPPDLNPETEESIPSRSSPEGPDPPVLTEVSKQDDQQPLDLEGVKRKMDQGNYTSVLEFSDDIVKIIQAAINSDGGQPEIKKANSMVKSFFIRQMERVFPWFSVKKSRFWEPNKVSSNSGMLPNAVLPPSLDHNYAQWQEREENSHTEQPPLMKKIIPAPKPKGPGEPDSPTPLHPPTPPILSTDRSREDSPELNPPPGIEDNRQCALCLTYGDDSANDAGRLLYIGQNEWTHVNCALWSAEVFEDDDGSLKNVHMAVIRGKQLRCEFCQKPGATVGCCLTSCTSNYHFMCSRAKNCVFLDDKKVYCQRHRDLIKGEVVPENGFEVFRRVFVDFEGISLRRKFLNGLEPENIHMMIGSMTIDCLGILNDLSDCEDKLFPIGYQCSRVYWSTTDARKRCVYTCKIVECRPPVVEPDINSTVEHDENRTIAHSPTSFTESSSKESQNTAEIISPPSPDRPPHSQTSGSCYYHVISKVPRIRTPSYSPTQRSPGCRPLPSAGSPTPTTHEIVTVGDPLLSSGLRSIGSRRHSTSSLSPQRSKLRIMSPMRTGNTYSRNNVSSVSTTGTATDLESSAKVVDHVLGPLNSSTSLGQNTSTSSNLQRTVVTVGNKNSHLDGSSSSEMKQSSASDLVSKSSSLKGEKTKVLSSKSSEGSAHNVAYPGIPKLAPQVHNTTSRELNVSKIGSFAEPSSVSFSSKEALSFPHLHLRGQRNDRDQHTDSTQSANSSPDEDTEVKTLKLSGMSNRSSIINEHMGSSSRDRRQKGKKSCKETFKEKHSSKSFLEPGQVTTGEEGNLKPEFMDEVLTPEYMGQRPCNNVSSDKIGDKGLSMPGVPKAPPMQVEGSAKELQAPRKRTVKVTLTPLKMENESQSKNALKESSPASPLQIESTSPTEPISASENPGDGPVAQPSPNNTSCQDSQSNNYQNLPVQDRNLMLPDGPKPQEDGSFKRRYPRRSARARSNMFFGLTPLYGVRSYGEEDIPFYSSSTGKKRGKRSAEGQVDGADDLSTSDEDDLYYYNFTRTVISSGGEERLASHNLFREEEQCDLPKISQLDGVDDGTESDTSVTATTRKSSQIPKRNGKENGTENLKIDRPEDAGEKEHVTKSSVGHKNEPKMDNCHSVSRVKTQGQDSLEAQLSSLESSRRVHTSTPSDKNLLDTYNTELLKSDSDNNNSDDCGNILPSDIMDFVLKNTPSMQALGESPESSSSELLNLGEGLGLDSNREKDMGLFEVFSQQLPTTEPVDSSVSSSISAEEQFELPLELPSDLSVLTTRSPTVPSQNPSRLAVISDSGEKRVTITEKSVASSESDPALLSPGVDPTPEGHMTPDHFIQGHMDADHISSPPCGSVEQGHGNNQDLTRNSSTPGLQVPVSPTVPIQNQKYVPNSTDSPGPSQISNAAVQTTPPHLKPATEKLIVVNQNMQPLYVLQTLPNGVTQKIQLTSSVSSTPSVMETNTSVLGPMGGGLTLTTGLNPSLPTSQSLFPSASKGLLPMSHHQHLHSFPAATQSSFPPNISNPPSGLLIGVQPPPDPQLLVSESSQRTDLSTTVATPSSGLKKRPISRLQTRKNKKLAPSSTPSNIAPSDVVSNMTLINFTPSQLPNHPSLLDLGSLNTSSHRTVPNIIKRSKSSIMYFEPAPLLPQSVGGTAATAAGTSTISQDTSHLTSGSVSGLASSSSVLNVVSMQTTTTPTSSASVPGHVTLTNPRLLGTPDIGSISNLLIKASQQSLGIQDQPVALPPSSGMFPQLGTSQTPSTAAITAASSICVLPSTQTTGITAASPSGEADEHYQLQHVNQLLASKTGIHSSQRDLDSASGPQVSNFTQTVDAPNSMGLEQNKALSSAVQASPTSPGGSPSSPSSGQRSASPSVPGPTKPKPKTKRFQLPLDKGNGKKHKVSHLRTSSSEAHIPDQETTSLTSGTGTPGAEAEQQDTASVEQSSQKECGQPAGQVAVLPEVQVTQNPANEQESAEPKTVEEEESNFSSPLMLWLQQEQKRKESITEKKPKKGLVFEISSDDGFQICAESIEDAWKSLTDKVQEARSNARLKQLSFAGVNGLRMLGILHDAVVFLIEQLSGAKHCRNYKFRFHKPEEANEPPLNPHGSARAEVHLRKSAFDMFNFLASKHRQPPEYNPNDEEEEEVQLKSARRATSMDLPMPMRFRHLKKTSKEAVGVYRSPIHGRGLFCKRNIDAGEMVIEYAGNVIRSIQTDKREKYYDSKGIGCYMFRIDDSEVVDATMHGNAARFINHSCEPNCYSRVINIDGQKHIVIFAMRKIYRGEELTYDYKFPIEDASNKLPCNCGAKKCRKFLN

These compounds were tested against Histone-lysine N-methyltransferase 2A (Homo sapiens) (UniProt Q03164) (assay: qHTS Fluorescence Polarization Assay for Inhibitors of MLL CXXC domain - DNA interaction). Details: MLL-CXXC / FITC-HOXA9 DNA fluorescence polarization; series mostly up to 115 µM.
Summary of the method: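 Steps: dispense CXXC domain solution (7 uM) → pin compounds or unlabeled HOX-A9 DNA control → 5 min ambient → add FLSN-HOX-A9 solution (50 nM) → spin → 30 min ambient → fluorescence polarization. Tris pH 7.5/NaCl/DTT/BSA buffer.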
For `COc1ccc(C2=CSC3=NCCN23)cc1`, the Potency was inconclusive: 63.1 µM [fluorescent, single point]. With `Oc1oc(-c2ccccc2)nc1/C=N/c1nccs1` the Potency was inconclusive: 15.8 µM [fluorescent, side channel, full curve]. For `COc1ccc(-c2nnc(NC(=O)C3CCCO3)s2)cc1` (stereo unspecified), the Potency was “inactive”. In the case of `Cc1ccc(NC(NC(=O)c2ccccc2[N+](=O)[O-])C(Cl)(Cl)Cl)cc1` (stereo unspecified), the Potency is reported as inconclusive: 39.8 µM [quencher, side channel, partial curve, poor fit]. With `O=C1CSCC(=O)N1Cc1ccc(Cl)c(Cl)c1` the Potency was inconclusive: 14.1 µM [fluorescent, side channel, single point]. `CC(=O)N/C(=C\c1cccc([N+](=O)[O-])c1)C(=O)NC1CCCCC1` was tested, and the Potency was inconclusive: 1.41 µM [fluorescent, side channel, full curve]. With `O=C1/C(=C/c2cccs2)N=C(c2cccs2)N1Nc1ccccc1` the Potency was inconclusive: 2.51 µM [fluorescent, side channel, full curve, poor fit]. `CNC[C@H](O)c1ccc(O)c(O)c1` was tested, and the Potency was “inactive and inconclusive: 39.8 µM [quencher, side channel, single point]”. In the case of `CCC(C)(C)NC(=O)/C=C/c1cc(OC)c(OC)c(S(=O)(=O)N2CCc3ccccc32)c1`, the Potency is reported as inconclusive: 10 µM [fluorescent, side channel, partial curve]. In the case of `CSc1nnc(-c2sc3cc(C(F)(F)F)cnc3c2-c2ccccn2)n1C`, the Potency is reported as inconclusive: 35.5 µM [inhibitor, single point]. For `Cn1c2ccc(F)cc2c2ncn(CCCN(CCO)CCO)c(=O)c21`, the Potency was “inactive”. With `COc1ccc(/C=C2/C(=O)N(c3ccccc3)N=C2C)cc1OC` the Potency was inconclusive: 3.16 µM [inhibitor, full curve, poor fit]. For `COc1ccc(OC)c2c1cc(C(=O)N[C@@H](Cc1ccccc1)C(=O)O)n2C`, the Potency was inconclusive: 1.58 µM [fluorescent, side channel, full curve]. `CCOc1ccc(Br)cc1CNc1ccc2c(c1)OCCO2` was tested, and the Potency was “inactive”. For `Cc1ncc(C(=O)O)c(C(=O)O)c1N`, the Potency was inconclusive: 6.31 µM [fluorescent, side channel, partial curve]. With `Cc1ccc(NC(=O)c2cccc(C(=O)Nc3ccc(C)cc3C(=O)O)c2)c(C(=O)O)c1` the Potency was inconclusive: 70.8 µM [fluorescent, side channel, partial curve]. With `CCOCCCNc1ccc(N2C(=O)CCCC2=O)cc1[N+](=O)[O-]` the Potency was inconclusive: 31.6 µM [fluorescent, side channel, single point]. `Oc1ccccc1N=Cc1c(O)ccc2oc3c(c12)CCCC3` was tested, and the Potency was “inactive”. In the case of `COc1cc(OC)c(OC)cc1/C=C1\CC(C)C/C(=C\c2cc(OC)c(OC)cc2OC)C1=O` (stereo unspecified), the Potency is reported as inconclusive: 70.8 µM [fluorescent, side channel, single point]. In the case of `CCCC(=O)OC[C@@H](OC(=O)CCC)[C@@H](OC(=O)CCC)[C@H](Cn1c2nc(=O)[nH]c(=O)c-2nc2cc(C)c(C)cc21)OC(=O)CCC`, the Potency is reported as inconclusive: 12.6 µM [fluorescent, side channel, full curve]. For `CC(=O)NN1C(=O)/C(=C2/Sc3ccc(Cl)cc3N2C)SC1=S`, the Potency was “inactive”. For `CC(S)C(=O)NCC(=O)O` (stereo unspecified), the Potency was “inactive”. In the case of `CC(=O)N1CCc2ccc(S(=O)(=O)Nc3ccccc3Cl)cc21`, the Potency is reported as inconclusive: 14.1 µM [quencher, side channel, single point]. For `CCc1ccc(NC(=O)CSc2nc3ccccc3c(=O)n2CCCN2CCC(C)CC2)cc1`, the Potency was “inactive”. `COc1ccc(-c2csc(N(CCCN(C)C)C(=O)c3ccccc3F)n2)cc1` was tested, and the Potency was inconclusive: 50.1 µM [quencher, side channel, single point]. With `COc1ccc(Cn2c(O)c(C=Nc3ccc(O)cc3)c3ccccc3c2=O)cc1` the Potency was inconclusive: 50.1 µM [inhibitor, single point]. With `CCN1CCN(CC(=O)N/N=C/c2cc(Br)cs2)CC1` the Potency was “inactive”. `COc1cccc(/C=C2\SC(N3CCC(C)CC3)=NC2=O)c1OC` was tested, and the Potency was “inactive”. `Cc1ccc(CN2CCNC(=O)C2CC(=O)N(C)C2CCOCC2)cc1` (stereo unspecified) was tested, and the Potency was inconclusive: 14.1 µM [fluorescent, side channel, full curve]. In the case of `Cc1ccc(N2CC(C(=O)Nc3nnc(SCc4cccnc4)s3)CC2=O)cc1` (stereo unspecified), the Potency is reported as inconclusive: 15.8 µM [fluorescent, side channel, single point]. In the case of `COC(=O)c1sc2ccccc2c1-n1cccc1C(=O)C(=O)Nc1ccc(C)cc1`, the Potency is reported as “inactive”. In the case of `CS(=O)(=O)Nc1nc2n(n1)C(c1ccccc1)C=C(c1ccc(Br)cc1)N2` (stereo unspecified), the Potency is reported as inconclusive: 25.1 µM [fluorescent, side channel, partial curve]. With `O=C(Cc1ccccc1Cl)N1CCN(c2ccccn2)CC1` the Potency was inconclusive: 15.8 µM [inhibitor, single point]. `Cn1cccc1/C=C1\SC(=S)N(NC(=O)c2ccc(F)cc2)C1=O` was tested, and the Potency was inconclusive: 63.1 µM [fluorescent, side channel, partial curve]. `CC1=NN(c2ccccc2)C(=O)/C1=C/c1cccc(C)c1` was tested, and the Potency was inconclusive: 10 µM [inhibitor, partial curve]. In the case of `Cn1cc(CN2CCC(n3nccc3NC(=O)c3ccccc3Cl)CC2)c2ccccc21`, the Potency is reported as “inactive”. `CCCc1nc(SCC(=O)O)c2sc(=S)n(-c3ccccc3)c2n1` was tested, and the Potency was inconclusive: 1.58 µM [inhibitor, full curve, poor fit]. For `O=C(O)CCC(=O)N1CCN(c2nc(-c3ccccc3Cl)c3cc(Br)ccc3n2)CC1`, the Potency was inconclusive: 70.8 µM [inhibitor, partial curve]. `Cc1ccnc(N/C=C(\C#N)c2nc(-c3cccc(Br)c3)cs2)c1` was tested, and the Potency was inconclusive: 5.01 µM [fluorescent, side channel, partial curve]. For `CC(C)c1ccc(/C=c2\sc3nc(-c4ccncc4)nn3c2=O)cc1`, the Potency was “inactive”. In the case of `Cc1cccc2c3nc4ccccc4nc3n(CCCN3C(=O)c4ccccc4C3=O)c12`, the Potency is reported as inconclusive: 39.8 µM [inhibitor, single point]. In the case of `O=C1c2cccc3c([N+](=O)[O-])ccc(c23)C(=O)N1Cc1cccnc1`, the Potency is reported as inconclusive: 28.2 µM [fluorescent, side channel, partial curve]. With `N#CC(C#N)=Cc1c(N2CCN(c3ccccc3)CC2)nc2ccccn2c1=O` the Potency was inconclusive: 63.1 µM [fluorescent, side channel, single point]. For `CC1=NN(c2ccccc2)C(=O)C1C=Nc1ccc(N(C)C)cc1` (stereo unspecified), the Potency was inconclusive: 70.8 µM [inhibitor, single point]. `CCCCNc1nc(N(C)c2ccccc2)nc(-n2ccnc2)n1` was tested, and the Potency was inconclusive: 39.8 µM [inhibitor, single point]. `O=C(O)c1ccc(COc2ccc(/C=N/NC(=O)c3cccs3)cc2)cc1` was tested, and the Potency was “inactive”. With `Cc1n[nH]c(C)c1Sc1ccccc1N=Cc1cc([N+](=O)[O-])ccc1O` the Potency was inconclusive: 70.8 µM [fluorescent, single point]. In the case of `S=c1nc(-c2ccccc2)n(-c2ccccc2)[nH]1`, the Potency is reported as “inactive”. `CCC(Oc1ccc(C)c(C)c1)C(=O)N1CCCN(C)CC1` (stereo unspecified) was tested, and the Potency was inconclusive: 14.1 µM [quencher, side channel, single point]. For `O=C(OCc1cccnc1)C1=Cc2ccccc2OC1`, the Potency was inconclusive: 31.6 µM [inhibitor, single point]. `COc1ccccc1C(=O)NCC(=O)N/N=C/c1cn[nH]c1-c1ccccc1` was tested, and the Potency was inconclusive: 3.16 µM [fluorescent, side channel, full curve, poor fit]. For `O=C1C2C3C=CC([C@@H]2C(=O)N1C1CCCCC1)[C@H]1C(=O)N(C2CCCCC2)C(=O)C31` (stereo partly specified), the Potency was inconclusive: 14.1 µM [inhibitor, partial curve]. In the case of `CC#CC(=O)N1CCC(C(=O)Nc2ccc(Oc3ccccc3)nc2)CC1`, the Potency is reported as inconclusive: 10 µM [quencher, side channel, single point]. For `O=C(c1ccc(Cl)cc1)c1cnc(-c2ccccc2)s1`, the Potency was “inactive”. `N=c1n(CCN2CCCCC2)c2ccccc2n1CC(=O)c1cccc([N+](=O)[O-])c1` was tested, and the Potency was inconclusive: 44.7 µM [quencher, side channel, single point]. For `CCOCc1cc(CN2CCC(n3nccc3NC(=O)C3CC3)CC2)ccc1OC`, the Potency was inconclusive: 7.08 µM [quencher, side channel, partial curve]. For `Cc1c(N=C2N=C(NC(=O)c3cccs3)c3ccccc32)c(=O)n(-c2ccccc2)n1C`, the Potency was inconclusive: 10 µM [fluorescent, side channel, partial curve]. In the case of `Oc1cccc(/C=N/Nc2ccc(Cl)nn2)c1`, the Potency is reported as “inactive”. In the case of `Cc1ccc(C2CC(=O)C(C=NCCN3CCN(CC(=O)Nc4cc(C)cc(C)c4)CC3)=C(O)C2)cc1` (stereo unspecified), the Potency is reported as “inactive”. With `Cc1cc(O)c(C=O)c2c1C(=O)Oc1c(CO)c(O)c3c(c1O2)C(O)OC3=O` (stereo unspecified) the Potency was inconclusive: 70.8 µM [inhibitor, single point]. For `OCCN(CCO)c1nc(N2CCCCC2)c2nc(N(CCO)CCO)nc(N3CCCCC3)c2n1`, the Potency was inconclusive: 25.1 µM [fluorescent, side channel, partial curve] and inconclusive: 10 µM [fluorescent, side channel, partial curve].
